Test results reported in paper PMC9473917.
These are yes or no findings as the source states them, for the method shown. Binding seen in cells or lysates may run through a third protein. Some results given as binding are weak or reduced against the parent protein; the word gives no strength. Where a sequence is shown, tags or fusion partners need not be part of it. Each block holds one binder with its values, some of them ahead of it.

Columns and labels:
[1] = target: T1, Endogenous E-cadherin (Drosophila (endogenous in ovaries)) (UniProt Q24298); assay: co-IP; reverse IP; ovary extracts from 50 females; proteins chemically cross-linked with DSP prior to cell lysis; Dynabeads protein G coated with an anti-E-cadherin antibody; wash buffer PBS-Triton 0.02%; blots with anti-GFP or anti-E-cadherin
T1 sequence: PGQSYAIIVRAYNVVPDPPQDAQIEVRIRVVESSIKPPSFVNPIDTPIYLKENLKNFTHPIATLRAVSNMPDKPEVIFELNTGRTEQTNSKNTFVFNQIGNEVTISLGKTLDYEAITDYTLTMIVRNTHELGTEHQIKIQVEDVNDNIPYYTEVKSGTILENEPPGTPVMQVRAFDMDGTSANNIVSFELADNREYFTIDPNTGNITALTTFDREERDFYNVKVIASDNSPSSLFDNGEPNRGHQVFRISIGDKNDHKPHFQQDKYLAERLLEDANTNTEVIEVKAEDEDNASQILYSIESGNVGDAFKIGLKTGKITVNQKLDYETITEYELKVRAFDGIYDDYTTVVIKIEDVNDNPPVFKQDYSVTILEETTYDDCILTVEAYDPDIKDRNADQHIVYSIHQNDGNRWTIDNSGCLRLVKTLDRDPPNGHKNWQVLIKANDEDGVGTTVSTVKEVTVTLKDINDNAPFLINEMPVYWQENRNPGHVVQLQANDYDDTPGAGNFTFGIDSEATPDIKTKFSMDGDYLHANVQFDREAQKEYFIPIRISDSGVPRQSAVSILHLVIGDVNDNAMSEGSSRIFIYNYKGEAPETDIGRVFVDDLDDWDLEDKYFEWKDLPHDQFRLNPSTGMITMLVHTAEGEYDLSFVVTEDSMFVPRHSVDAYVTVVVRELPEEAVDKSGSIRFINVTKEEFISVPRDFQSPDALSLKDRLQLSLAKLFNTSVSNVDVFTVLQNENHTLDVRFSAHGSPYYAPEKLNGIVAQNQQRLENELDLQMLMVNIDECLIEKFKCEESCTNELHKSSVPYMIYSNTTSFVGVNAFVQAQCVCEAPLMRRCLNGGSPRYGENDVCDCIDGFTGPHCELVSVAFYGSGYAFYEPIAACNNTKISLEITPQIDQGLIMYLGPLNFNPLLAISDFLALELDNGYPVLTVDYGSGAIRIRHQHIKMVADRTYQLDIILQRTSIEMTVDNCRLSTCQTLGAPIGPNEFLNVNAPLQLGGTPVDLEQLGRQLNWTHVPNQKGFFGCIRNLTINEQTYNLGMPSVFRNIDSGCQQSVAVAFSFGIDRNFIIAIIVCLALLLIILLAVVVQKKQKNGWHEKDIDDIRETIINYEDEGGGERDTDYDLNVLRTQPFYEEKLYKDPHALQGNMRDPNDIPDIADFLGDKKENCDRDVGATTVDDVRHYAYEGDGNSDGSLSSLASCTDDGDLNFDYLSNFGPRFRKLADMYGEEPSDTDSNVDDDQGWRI

[2] = target: T2, E-cadherin-GFP (shg::GFP Knock-In) (Drosophila) (UniProt Q24298); assay: proximity ligation; Duolink PLA on ovaries of shg::GFP Knock-In females with mouse anti-GFP and rabbit anti-Stat92E (D. Montell); Canton females as negative control; Tween 0.1%
T2 sequence: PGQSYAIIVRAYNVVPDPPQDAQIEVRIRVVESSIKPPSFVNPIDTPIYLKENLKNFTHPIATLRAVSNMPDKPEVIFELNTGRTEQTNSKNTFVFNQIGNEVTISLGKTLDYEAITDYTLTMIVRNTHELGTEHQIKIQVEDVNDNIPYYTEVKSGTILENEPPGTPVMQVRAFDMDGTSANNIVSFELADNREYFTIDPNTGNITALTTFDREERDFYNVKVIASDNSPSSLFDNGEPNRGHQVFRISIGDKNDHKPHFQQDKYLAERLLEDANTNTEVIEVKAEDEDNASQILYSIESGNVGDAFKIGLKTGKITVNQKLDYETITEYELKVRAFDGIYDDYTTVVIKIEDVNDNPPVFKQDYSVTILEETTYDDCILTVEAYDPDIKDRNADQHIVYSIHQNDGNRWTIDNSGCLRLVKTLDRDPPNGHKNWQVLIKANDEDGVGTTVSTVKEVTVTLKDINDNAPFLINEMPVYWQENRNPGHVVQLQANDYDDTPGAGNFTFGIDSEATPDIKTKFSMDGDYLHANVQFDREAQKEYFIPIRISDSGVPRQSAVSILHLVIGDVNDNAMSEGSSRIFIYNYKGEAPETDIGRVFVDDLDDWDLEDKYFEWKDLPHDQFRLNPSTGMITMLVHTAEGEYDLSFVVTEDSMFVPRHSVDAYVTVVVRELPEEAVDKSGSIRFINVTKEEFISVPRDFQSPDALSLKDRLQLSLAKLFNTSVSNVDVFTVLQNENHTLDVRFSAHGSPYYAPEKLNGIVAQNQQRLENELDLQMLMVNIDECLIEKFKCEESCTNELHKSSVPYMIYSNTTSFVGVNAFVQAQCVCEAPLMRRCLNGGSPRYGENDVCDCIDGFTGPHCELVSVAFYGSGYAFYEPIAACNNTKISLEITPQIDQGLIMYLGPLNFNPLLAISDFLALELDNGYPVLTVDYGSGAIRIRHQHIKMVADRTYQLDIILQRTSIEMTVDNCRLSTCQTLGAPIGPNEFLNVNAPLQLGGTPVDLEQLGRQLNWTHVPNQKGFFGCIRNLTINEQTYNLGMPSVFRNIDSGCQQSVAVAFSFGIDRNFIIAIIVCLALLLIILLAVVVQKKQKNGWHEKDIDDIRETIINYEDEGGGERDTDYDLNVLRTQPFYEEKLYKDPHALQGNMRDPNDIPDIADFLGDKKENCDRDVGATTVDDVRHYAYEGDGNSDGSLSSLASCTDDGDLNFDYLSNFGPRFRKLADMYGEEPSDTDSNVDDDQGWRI

Stat92E-GFP (Drosophila) = target: T3, Stat92E-GFP (Drosophila) (UniProt Q24151); assay: co-IP; ovary extracts from 50 females; proteins chemically cross-linked with DSP prior to cell lysis; GFP magnetic agarose beads (Chromotek, GFP-trap); wash buffer 10 mM Tris-HCl pH7.5, 300 mM NaCl, 0.05% NP40, 0.5 mM EDTA; blots with anti-GFP or anti-E-cadherin
T3 sequence: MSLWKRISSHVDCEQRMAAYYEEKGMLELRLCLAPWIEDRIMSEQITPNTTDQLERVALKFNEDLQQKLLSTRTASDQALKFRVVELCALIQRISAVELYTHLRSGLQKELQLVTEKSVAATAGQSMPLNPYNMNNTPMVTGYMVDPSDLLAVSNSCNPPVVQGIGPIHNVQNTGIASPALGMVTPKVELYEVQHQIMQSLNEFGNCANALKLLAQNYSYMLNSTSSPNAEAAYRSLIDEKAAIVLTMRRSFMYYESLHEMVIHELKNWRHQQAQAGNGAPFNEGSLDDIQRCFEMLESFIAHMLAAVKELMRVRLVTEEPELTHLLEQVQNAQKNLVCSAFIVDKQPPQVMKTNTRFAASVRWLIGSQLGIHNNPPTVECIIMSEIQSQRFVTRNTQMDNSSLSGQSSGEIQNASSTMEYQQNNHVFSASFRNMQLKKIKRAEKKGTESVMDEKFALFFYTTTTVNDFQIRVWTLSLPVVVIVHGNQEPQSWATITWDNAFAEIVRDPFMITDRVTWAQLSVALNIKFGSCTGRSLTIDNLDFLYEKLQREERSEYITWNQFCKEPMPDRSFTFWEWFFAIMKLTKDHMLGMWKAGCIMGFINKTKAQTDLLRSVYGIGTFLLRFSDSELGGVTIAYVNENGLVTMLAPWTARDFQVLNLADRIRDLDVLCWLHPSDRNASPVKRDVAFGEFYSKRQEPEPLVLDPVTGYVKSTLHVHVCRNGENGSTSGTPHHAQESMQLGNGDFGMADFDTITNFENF

binding [1]: binds
B1: Stat92E-GFP (protein, UniProt Q24151 1-761)
chain: MSLWKRISSHVDCEQRMAAYYEEKGMLELRLCLAPWIEDRIMSEQITPNTTDQLERVALKFNEDLQQKLLSTRTASDQALKFRVVELCALIQRISAVELYTHLRSGLQKELQLVTEKSVAATAGQSMPLNPYNMNNTPMVTGYMVDPSDLLAVSNSCNPPVVQGIGPIHNVQNTGIASPALGMVTPKVELYEVQHQIMQSLNEFGNCANALKLLAQNYSYMLNSTSSPNAEAAYRSLIDEKAAIVLTMRRSFMYYESLHEMVIHELKNWRHQQAQAGNGAPFNEGSLDDIQRCFEMLESFIAHMLAAVKELMRVRLVTEEPELTHLLEQVQNAQKNLVCSAFIVDKQPPQVMKTNTRFAASVRWLIGSQLGIHNNPPTVECIIMSEIQSQRFVTRNTQMDNSSLSGQSSGEIQNASSTMEYQQNNHVFSASFRNMQLKKIKRAEKKGTESVMDEKFALFFYTTTTVNDFQIRVWTLSLPVVVIVHGNQEPQSWATITWDNAFAEIVRDPFMITDRVTWAQLSVALNIKFGSCTGRSLTIDNLDFLYEKLQREERSEYITWNQFCKEPMPDRSFTFWEWFFAIMKLTKDHMLGMWKAGCIMGFINKTKAQTDLLRSVYGIGTFLLRFSDSELGGVTIAYVNENGLVTMLAPWTARDFQVLNLADRIRDLDVLCWLHPSDRNASPVKRDVAFGEFYSKRQEPEPLVLDPVTGYVKSTLHVHVCRNGENGSTSGTPHHAQESMQLGNGDFGMADFDTITNFENF

binding [2]: binds
B2: Endogenous Stat92E (protein, UniProt Q24151 1-761)
chain: MSLWKRISSHVDCEQRMAAYYEEKGMLELRLCLAPWIEDRIMSEQITPNTTDQLERVALKFNEDLQQKLLSTRTASDQALKFRVVELCALIQRISAVELYTHLRSGLQKELQLVTEKSVAATAGQSMPLNPYNMNNTPMVTGYMVDPSDLLAVSNSCNPPVVQGIGPIHNVQNTGIASPALGMVTPKVELYEVQHQIMQSLNEFGNCANALKLLAQNYSYMLNSTSSPNAEAAYRSLIDEKAAIVLTMRRSFMYYESLHEMVIHELKNWRHQQAQAGNGAPFNEGSLDDIQRCFEMLESFIAHMLAAVKELMRVRLVTEEPELTHLLEQVQNAQKNLVCSAFIVDKQPPQVMKTNTRFAASVRWLIGSQLGIHNNPPTVECIIMSEIQSQRFVTRNTQMDNSSLSGQSSGEIQNASSTMEYQQNNHVFSASFRNMQLKKIKRAEKKGTESVMDEKFALFFYTTTTVNDFQIRVWTLSLPVVVIVHGNQEPQSWATITWDNAFAEIVRDPFMITDRVTWAQLSVALNIKFGSCTGRSLTIDNLDFLYEKLQREERSEYITWNQFCKEPMPDRSFTFWEWFFAIMKLTKDHMLGMWKAGCIMGFINKTKAQTDLLRSVYGIGTFLLRFSDSELGGVTIAYVNENGLVTMLAPWTARDFQVLNLADRIRDLDVLCWLHPSDRNASPVKRDVAFGEFYSKRQEPEPLVLDPVTGYVKSTLHVHVCRNGENGSTSGTPHHAQESMQLGNGDFGMADFDTITNFENF

binding (Stat92E-GFP (Drosophila)): binds
B3: Endogenous E-cadherin (protein, UniProt Q24298 262-1507)
chain: PGQSYAIIVRAYNVVPDPPQDAQIEVRIRVVESSIKPPSFVNPIDTPIYLKENLKNFTHPIATLRAVSNMPDKPEVIFELNTGRTEQTNSKNTFVFNQIGNEVTISLGKTLDYEAITDYTLTMIVRNTHELGTEHQIKIQVEDVNDNIPYYTEVKSGTILENEPPGTPVMQVRAFDMDGTSANNIVSFELADNREYFTIDPNTGNITALTTFDREERDFYNVKVIASDNSPSSLFDNGEPNRGHQVFRISIGDKNDHKPHFQQDKYLAERLLEDANTNTEVIEVKAEDEDNASQILYSIESGNVGDAFKIGLKTGKITVNQKLDYETITEYELKVRAFDGIYDDYTTVVIKIEDVNDNPPVFKQDYSVTILEETTYDDCILTVEAYDPDIKDRNADQHIVYSIHQNDGNRWTIDNSGCLRLVKTLDRDPPNGHKNWQVLIKANDEDGVGTTVSTVKEVTVTLKDINDNAPFLINEMPVYWQENRNPGHVVQLQANDYDDTPGAGNFTFGIDSEATPDIKTKFSMDGDYLHANVQFDREAQKEYFIPIRISDSGVPRQSAVSILHLVIGDVNDNAMSEGSSRIFIYNYKGEAPETDIGRVFVDDLDDWDLEDKYFEWKDLPHDQFRLNPSTGMITMLVHTAEGEYDLSFVVTEDSMFVPRHSVDAYVTVVVRELPEEAVDKSGSIRFINVTKEEFISVPRDFQSPDALSLKDRLQLSLAKLFNTSVSNVDVFTVLQNENHTLDVRFSAHGSPYYAPEKLNGIVAQNQQRLENELDLQMLMVNIDECLIEKFKCEESCTNELHKSSVPYMIYSNTTSFVGVNAFVQAQCVCEAPLMRRCLNGGSPRYGENDVCDCIDGFTGPHCELVSVAFYGSGYAFYEPIAACNNTKISLEITPQIDQGLIMYLGPLNFNPLLAISDFLALELDNGYPVLTVDYGSGAIRIRHQHIKMVADRTYQLDIILQRTSIEMTVDNCRLSTCQTLGAPIGPNEFLNVNAPLQLGGTPVDLEQLGRQLNWTHVPNQKGFFGCIRNLTINEQTYNLGMPSVFRNIDSGCQQSVAVAFSFGIDRNFIIAIIVCLALLLIILLAVVVQKKQKNGWHEKDIDDIRETIINYEDEGGGERDTDYDLNVLRTQPFYEEKLYKDPHALQGNMRDPNDIPDIADFLGDKKENCDRDVGATTVDDVRHYAYEGDGNSDGSLSSLASCTDDGDLNFDYLSNFGPRFRKLADMYGEEPSDTDSNVDDDQGWRI
